Test results as given in publication PMC3422273.
No constants are given. Whether binding was seen depends on the method and setting. A result given as binding can be weak or reduced; the word gives no strength. Where a sequence is shown, tags or fusion partners need not be part of it.

molecular target: T1, LexA DNA-binding domain fusion of IAA8 (Arabidopsis thaliana) (UniProt Q38826); assay: two-hybrid; LexA-based system in yeast EGY48::pJK103; bait BD-IAA8 in pEG202gw, prey AD-ARFCTD in pJG4-5gw; semi-quantitative lacZ (beta-gal) activity by the ONPG method
T1 sequence: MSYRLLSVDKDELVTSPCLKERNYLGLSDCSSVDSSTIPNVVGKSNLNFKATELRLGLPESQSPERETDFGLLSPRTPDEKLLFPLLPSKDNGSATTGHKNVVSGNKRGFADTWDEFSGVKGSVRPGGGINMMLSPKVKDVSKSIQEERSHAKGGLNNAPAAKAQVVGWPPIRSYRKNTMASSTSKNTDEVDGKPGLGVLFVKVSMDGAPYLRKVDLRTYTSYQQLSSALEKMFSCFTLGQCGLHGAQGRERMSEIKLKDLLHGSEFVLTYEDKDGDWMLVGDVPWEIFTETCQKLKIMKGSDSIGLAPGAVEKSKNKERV

Row | binding | Substance
1 | binds | AD-ARF4CTD (activation domain with HA tag fusion of the C-terminal domain of ARF4) (Arabidopsis thaliana) (domain or fragment)
2 | binds | AD-ARF5CTD (activation domain with HA tag fusion of the C-terminal domain of ARF5) (Arabidopsis thaliana) (domain or fragment)
3 | binds | AD-ARF11CTD (activation domain with HA tag fusion of the C-terminal domain of ARF11) (Arabidopsis thaliana) (domain or fragment)
4 | binds | AD-ARF16CTD (activation domain with HA tag fusion of the C-terminal domain of ARF16) (Arabidopsis thaliana) (domain or fragment)

The remaining lines, values behind:

Row | Substance | binding
5 | AD-ARF3CTD (activation domain with HA tag fusion of the C-terminal domain of ARF3) (Arabidopsis thaliana) (domain or fragment) | no binding
6 | AD-ARF7CTD (activation domain with HA tag fusion of the C-terminal domain of ARF7) (Arabidopsis thaliana) (domain or fragment) | binds
7 | AD-ARF19CTD (activation domain with HA tag fusion of the C-terminal domain of ARF19) (Arabidopsis thaliana) (domain or fragment) | binds
